The other results are listed elsewhere or left out.
compound: c1cn2cc(-c3ccc4cn[nH]c4c3)nc(Nc3ccc(N4CCOCC4)cc3)c2n1 [entospletinib]; experiment: log2 fold change, soluble protein after heating vs DMSO (PISA); higher = thermal stabilisation; K562 cells, 10 uM, 30 min; active = over 0.2 and 3.5 SD of the protein, either way, in both replicates (recomputed)
Procedure, shortened: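 K562 cells (2×10^6 cells/mL) were treated with 10 μM compound for 30 min, and aliquots were heated for 3 min over 48°C-58°C. Pooled aliquots were extracted in PBS with 0.5% NP-40 at 4°C, and the supernatant after 21,000xg for 90 min was measured by TMTpro 16plex LC-MS/MS with channel sums equalised. Reported thermal stability, relative to control samples and from duplicates, is a log2 fold change.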

Protein sequences, listed by entry. Tags and fused reporters are not part of them. Lines headed by an entry give the natural chain unless they say otherwise; changes in a name come on top.
UniProt Q9Y3A5: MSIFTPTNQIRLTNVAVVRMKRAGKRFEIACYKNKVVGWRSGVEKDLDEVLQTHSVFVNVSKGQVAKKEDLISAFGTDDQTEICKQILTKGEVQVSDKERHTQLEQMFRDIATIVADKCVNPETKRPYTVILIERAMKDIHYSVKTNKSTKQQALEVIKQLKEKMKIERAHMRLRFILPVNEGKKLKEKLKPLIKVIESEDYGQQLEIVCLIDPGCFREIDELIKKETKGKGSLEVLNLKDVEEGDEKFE
UniProt P31949: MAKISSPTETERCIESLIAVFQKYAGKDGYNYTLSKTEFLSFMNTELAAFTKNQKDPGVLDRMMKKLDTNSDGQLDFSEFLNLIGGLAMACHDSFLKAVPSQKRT
UniProt Q96I15: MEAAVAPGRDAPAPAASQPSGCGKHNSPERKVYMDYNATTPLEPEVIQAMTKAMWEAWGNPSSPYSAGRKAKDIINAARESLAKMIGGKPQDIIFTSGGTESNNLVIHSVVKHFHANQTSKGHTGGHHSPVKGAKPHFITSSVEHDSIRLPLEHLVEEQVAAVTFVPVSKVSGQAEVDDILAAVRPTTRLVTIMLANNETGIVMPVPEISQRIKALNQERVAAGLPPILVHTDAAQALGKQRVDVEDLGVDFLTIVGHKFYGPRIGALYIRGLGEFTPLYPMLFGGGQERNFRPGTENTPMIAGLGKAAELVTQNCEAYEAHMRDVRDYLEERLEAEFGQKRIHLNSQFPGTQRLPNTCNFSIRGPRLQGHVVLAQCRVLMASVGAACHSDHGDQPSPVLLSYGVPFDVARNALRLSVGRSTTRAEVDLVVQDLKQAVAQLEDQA
UniProt O95487: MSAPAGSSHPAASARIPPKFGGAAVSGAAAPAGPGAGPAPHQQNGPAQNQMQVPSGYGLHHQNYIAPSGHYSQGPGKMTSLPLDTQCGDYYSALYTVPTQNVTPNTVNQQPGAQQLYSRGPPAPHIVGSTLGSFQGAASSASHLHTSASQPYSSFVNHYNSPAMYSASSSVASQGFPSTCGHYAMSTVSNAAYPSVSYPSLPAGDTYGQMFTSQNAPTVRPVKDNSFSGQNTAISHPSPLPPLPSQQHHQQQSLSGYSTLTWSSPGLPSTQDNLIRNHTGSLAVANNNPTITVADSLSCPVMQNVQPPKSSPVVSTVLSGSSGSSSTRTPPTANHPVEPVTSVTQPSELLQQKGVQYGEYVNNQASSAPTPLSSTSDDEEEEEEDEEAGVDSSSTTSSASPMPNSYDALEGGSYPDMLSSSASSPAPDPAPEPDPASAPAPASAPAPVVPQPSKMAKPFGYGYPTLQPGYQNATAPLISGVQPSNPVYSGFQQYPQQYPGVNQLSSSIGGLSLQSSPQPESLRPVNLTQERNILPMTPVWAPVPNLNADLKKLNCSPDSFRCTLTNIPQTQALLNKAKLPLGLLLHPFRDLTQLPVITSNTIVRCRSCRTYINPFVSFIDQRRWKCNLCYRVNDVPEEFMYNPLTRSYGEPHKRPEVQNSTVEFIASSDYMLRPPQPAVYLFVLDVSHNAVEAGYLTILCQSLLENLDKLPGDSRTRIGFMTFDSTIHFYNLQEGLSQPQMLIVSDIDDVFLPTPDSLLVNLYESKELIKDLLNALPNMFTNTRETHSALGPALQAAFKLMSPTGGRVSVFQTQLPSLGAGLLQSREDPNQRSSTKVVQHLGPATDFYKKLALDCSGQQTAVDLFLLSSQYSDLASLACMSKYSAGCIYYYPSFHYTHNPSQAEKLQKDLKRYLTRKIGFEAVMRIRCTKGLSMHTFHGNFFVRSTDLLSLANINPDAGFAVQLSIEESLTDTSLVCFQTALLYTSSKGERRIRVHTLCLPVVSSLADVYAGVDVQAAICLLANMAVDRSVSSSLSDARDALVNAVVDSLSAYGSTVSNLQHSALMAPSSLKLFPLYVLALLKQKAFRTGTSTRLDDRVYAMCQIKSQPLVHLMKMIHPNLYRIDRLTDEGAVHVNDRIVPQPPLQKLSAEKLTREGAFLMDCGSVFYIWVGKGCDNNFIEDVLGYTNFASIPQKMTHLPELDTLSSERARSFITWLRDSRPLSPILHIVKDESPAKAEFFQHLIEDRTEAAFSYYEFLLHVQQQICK
UniProt P21912: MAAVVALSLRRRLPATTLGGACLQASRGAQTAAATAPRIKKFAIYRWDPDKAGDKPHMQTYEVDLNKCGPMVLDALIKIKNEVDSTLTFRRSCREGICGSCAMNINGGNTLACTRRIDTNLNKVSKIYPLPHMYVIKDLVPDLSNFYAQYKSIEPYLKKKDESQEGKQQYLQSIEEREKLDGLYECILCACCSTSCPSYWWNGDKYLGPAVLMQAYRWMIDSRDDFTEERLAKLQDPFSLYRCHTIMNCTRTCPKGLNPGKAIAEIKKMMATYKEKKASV
UniProt O75396: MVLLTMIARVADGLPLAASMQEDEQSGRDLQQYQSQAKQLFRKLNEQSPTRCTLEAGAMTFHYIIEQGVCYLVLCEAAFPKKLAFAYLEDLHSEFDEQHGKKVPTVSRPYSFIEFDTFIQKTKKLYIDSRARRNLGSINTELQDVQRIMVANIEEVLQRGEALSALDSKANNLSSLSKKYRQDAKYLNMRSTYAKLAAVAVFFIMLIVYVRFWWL
UniProt Q9Y3I0: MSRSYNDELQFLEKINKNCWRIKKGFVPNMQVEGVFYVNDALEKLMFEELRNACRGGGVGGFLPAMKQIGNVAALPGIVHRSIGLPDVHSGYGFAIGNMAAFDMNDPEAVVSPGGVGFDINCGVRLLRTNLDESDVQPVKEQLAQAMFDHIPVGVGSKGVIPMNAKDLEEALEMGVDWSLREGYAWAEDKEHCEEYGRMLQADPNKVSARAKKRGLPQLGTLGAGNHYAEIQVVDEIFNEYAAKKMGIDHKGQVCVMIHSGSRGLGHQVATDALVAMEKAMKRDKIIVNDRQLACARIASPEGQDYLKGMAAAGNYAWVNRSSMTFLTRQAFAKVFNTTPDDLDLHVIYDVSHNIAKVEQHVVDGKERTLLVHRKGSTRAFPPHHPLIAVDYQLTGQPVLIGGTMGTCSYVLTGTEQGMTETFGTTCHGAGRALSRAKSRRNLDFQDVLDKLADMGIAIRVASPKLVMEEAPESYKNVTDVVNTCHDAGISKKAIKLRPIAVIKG
UniProt P67812: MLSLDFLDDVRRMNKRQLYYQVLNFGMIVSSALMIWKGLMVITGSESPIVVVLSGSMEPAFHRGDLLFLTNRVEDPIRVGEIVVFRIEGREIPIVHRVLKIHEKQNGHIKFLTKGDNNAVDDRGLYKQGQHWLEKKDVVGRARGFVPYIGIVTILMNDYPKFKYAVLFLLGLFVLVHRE
UniProt Q8WU76: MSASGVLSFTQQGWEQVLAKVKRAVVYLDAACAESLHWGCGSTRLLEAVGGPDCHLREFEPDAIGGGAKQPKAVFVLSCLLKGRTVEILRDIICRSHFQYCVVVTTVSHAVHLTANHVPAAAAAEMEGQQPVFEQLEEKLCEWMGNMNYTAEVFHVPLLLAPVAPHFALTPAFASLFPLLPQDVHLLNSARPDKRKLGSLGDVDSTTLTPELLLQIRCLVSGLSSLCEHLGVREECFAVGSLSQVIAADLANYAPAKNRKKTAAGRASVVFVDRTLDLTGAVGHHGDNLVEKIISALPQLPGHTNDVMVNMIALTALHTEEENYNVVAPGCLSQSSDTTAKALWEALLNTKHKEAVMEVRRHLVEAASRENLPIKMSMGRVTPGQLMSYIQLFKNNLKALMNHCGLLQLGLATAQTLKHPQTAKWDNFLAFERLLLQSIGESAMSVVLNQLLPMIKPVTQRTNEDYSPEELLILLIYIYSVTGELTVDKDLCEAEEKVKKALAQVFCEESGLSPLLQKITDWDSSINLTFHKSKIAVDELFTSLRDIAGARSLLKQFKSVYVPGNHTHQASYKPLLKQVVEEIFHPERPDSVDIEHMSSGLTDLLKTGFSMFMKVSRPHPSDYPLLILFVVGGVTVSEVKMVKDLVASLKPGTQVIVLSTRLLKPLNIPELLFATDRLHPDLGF
UniProt Q9NR31: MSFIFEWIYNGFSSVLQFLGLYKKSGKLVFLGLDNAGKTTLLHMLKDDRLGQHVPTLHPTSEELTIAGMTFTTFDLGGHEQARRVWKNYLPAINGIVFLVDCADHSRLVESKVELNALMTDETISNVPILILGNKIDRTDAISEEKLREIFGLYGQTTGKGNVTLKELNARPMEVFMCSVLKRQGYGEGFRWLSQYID
UniProt O00422: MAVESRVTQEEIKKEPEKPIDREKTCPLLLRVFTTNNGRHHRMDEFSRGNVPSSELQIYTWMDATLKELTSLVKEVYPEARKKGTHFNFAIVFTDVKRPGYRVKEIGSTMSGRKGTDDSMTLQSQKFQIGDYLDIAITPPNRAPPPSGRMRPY
UniProt Q5VWQ0: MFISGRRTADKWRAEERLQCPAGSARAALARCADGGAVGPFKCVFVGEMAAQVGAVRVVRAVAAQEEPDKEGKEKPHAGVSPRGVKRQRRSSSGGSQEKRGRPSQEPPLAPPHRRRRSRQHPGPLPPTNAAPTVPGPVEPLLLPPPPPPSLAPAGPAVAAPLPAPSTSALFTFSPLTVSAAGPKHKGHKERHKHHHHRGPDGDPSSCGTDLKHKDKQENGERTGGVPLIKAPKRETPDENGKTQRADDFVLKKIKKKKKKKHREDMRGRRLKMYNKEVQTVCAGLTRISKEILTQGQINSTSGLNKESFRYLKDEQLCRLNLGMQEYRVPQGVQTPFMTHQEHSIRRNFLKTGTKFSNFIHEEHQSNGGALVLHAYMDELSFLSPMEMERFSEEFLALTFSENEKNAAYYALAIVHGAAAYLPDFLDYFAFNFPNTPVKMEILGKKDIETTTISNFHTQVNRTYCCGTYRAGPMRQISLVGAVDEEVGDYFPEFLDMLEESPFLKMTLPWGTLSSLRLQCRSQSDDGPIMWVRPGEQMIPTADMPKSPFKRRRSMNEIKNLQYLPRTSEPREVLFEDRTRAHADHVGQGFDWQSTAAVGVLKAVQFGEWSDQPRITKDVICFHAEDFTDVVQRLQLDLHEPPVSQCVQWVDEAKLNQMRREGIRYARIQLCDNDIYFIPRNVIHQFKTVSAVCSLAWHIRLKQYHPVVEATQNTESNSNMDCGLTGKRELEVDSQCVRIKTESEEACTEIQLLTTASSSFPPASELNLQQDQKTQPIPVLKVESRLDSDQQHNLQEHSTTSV
UniProt P57060: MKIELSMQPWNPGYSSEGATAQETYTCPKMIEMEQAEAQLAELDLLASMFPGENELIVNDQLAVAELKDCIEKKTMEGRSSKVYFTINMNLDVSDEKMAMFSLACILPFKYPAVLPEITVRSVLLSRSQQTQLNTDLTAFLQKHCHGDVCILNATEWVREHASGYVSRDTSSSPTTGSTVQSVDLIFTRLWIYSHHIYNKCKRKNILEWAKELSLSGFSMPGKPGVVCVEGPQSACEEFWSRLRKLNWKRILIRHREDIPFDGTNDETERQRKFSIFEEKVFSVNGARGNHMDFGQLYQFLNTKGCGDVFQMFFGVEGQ
UniProt O95104: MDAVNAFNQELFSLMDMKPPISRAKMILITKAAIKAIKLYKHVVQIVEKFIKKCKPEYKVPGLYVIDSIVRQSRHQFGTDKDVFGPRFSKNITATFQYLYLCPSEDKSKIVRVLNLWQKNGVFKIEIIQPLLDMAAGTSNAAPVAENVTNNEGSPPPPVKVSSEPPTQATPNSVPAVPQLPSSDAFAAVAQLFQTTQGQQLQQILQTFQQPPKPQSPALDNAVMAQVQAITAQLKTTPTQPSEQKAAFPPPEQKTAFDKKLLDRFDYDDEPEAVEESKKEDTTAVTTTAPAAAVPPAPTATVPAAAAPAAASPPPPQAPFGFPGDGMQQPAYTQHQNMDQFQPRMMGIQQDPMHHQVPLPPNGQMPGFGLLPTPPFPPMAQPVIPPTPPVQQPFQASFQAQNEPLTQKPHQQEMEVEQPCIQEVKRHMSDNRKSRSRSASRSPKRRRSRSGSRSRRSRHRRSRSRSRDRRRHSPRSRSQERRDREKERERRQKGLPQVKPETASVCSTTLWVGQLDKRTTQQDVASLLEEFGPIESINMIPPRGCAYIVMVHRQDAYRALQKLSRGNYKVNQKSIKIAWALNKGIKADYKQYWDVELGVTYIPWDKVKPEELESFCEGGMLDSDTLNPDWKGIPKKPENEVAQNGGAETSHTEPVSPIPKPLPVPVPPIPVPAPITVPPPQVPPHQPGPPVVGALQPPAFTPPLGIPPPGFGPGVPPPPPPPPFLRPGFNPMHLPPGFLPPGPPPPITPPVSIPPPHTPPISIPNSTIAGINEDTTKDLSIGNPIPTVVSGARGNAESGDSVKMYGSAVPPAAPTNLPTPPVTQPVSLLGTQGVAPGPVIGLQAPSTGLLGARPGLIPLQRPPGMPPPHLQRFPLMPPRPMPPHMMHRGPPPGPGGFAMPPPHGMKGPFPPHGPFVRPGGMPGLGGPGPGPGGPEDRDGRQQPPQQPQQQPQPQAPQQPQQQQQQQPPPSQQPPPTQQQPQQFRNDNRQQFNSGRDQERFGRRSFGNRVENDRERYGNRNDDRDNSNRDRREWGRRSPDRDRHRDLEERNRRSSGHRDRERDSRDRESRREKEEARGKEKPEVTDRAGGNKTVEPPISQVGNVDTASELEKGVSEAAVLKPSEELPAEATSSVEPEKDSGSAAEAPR

Target	log2 fold change
SBDS (UniProt Q9Y3A5)	inactive: -0.02
SAYSD1 (UniProt Q9NPB0)	inactive: -0.197
S100A11 (UniProt P31949)	inactive: 0.052
SCLY (UniProt Q96I15)	inactive: -0.039
SEC24B isoform 3 (UniProt O95487)	inactive: 0.034
SDHB (UniProt P21912)	inactive: 0.043
SEC22B (UniProt O75396)	inactive: -0.083
SDF4 (UniProt Q9BRK5)	inactive: 0.01
RTCB (UniProt Q9Y3I0)	inactive: 0.021
RSL24D1 (UniProt Q9UHA3)	inactive: 0.122
SEC11A isoform 3 (UniProt P67812)	inactive: -0.039
SCFD2 (UniProt Q8WU76)	inactive: 0.152
SAR1A (UniProt Q9NR31)	inactive: 0.033
SAP30BP (UniProt Q9UHR5)	inactive: 0.027
SCAMP3 isoform 2 (UniProt O14828)	inactive: 0.18
SAP18 isoform 2 (UniProt O00422)	inactive: 0.19
RSBN1 (UniProt Q5VWQ0)	inactive: -0.003
SCGB2A2 (UniProt Q13296)	inactive: 0.085
RTN3 isoform 5 (UniProt O95197)	inactive: 0.033
RWDD2B (UniProt P57060)	inactive: 0.073
SAR1B (UniProt Q9Y6B6)	inactive: -0.001
SCAF4 (UniProt O95104)	inactive: 0.088
S100A16 (UniProt Q96FQ6)	inactive: -0.173

An excerpt of these results, as comma-separated lines.
Target,log2 fold change
SDF4 (UniProt Q9BRK5),inactive: 0.01
SCFD2 (UniProt Q8WU76),inactive: 0.152

Source: the supplement of paper PMC10849652
